Laboratory results: PubChem BioAssay AID1259272 (Sanger Institute, 2017)
In all, the deposit lists 794 reagents; below is an unselected part. Over the whole deposit, 7 (0.88%) are marked active. 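Essential calls reflect knock-down without drug only, not synergy with drugs; drug exposure length not given.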 No viability above 1 is reported: the scale is capped. Further read-outs or replicates are left out here. The record does not give: the amount of reagent, the time to read-out.

- Test: 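Kinome-wide siRNA search for genes whose silencing boosts targeted drug effects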 (primary screen)
- System: SW1116 human colorectal cancer cells
- Knock-down reagent: siRNA pool against human genes
- Treatment: anchor drugs BYL719 (1 µM), cetuximab (5 µg/ml) or trametinib (10 nM), or DMSO vehicle; exposure length not given
- Measured: 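Cell survival as a fraction of wells given a non-targeting pool, averaged over replicates; robust z-score without drug; synergy score for each of BYL719, cetuximab and trametinib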
- Reading the numbers: viability z-score, no drug: higher = more cells remaining; strongly negative means essential gene; viability, no drug: higher = more viable cells
- Units: viability, no drug in fraction of control
- Call rule: 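Called essential if the drug-free knock-down gives a robust viability z-score below -3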
- Meaning of the calls: active = essential (knock-down alone); inactive = no change

RPS6KA3 showed viability z-score, no drug -0.639; viability, no drug 0.842; inactive.
With knock-down of INSRR, the record shows viability z-score, no drug -1.03; viability, no drug 0.801; inactive.
After knock-down of SKAP1, the screen gave viability z-score, no drug 0.842; viability, no drug 1; inactive.
Silencing of STK25 gave: viability z-score, no drug -0.833; viability, no drug 0.822; inactive.
MAP2K2 showed viability z-score, no drug 0.842; viability, no drug 1; inactive.
After knock-down of PRKD1, the screen gave viability z-score, no drug -2; viability, no drug 0.697; inactive.
For SOS2 the deposit lists viability z-score, no drug 0.842; viability, no drug 1; inactive.
Silencing of ACSL6 came out at: viability z-score, no drug 0.842; viability, no drug 1; inactive.
PRKG2 showed viability z-score, no drug -1.23; viability, no drug 0.78; inactive.
Depletion of PASK came out at: viability z-score, no drug 0.344; viability, no drug 0.947; inactive.
Depletion of RYK gave: viability z-score, no drug 0.842; viability, no drug 1; inactive.
GUCY2C scored viability z-score, no drug 0.842; viability, no drug 1; inactive.
TESK2 scored viability z-score, no drug 0.842; viability, no drug 1; inactive.
RAF1 scored viability z-score, no drug 0.842; viability, no drug 1; inactive.
Silencing of PINK1 resulted in: viability z-score, no drug 0.658; viability, no drug 0.98; inactive.
Depletion of CSNK1D gave: viability z-score, no drug 0.784; viability, no drug 0.994; inactive.
MAPKAPK5 scored viability z-score, no drug 0.842; viability, no drug 1; inactive.
After knock-down of RTN4, the record shows viability z-score, no drug -0.812; viability, no drug 0.824; inactive.
With knock-down of CDC73, the record shows viability z-score, no drug 0.842; viability, no drug 1; inactive.
EFNA3 scored viability z-score, no drug 0.842; viability, no drug 1; inactive.
With knock-down of STK32A, the screen gave viability z-score, no drug 0.139; viability, no drug 0.925; inactive.
For MGA, the entry reads viability z-score, no drug -0.442; viability, no drug 0.863; inactive.
Depletion of DSTYK came out at: viability z-score, no drug 0.842; viability, no drug 1; inactive.
With knock-down of CDC42BPB, the record shows viability z-score, no drug 0.842; viability, no drug 1; inactive.
GUCY2F scored viability z-score, no drug 0.41; viability, no drug 0.954; inactive.
With knock-down of MAP3K11 the results were viability z-score, no drug 0.143; viability, no drug 0.926; inactive.
Depletion of DYRK2 gave: viability z-score, no drug -0.225; viability, no drug 0.886; inactive.
MAPK9 gave viability z-score, no drug 0.842; viability, no drug 1; inactive.
Against MAGI1, the entry reads viability z-score, no drug -0.0777; viability, no drug 0.902; inactive.
Against NME5, the values are viability z-score, no drug 0.352; viability, no drug 0.948; inactive.
For STK17A, the entry reads viability z-score, no drug -2.65; viability, no drug 0.629; inactive.
With knock-down of SMG1, the screen gave viability z-score, no drug 0.842; viability, no drug 1; inactive.
Against NEK1 the deposit lists viability z-score, no drug 0.842; viability, no drug 1; inactive.
SIK2 showed viability z-score, no drug 0.842; viability, no drug 1; inactive.
Depletion of CAMK1D gave: viability z-score, no drug -0.473; viability, no drug 0.86; inactive.
After knock-down of PAK6, the record shows viability z-score, no drug 0.842; viability, no drug 1; inactive.

Laid out differently: results already given
STK25
- viability z-score, no drug: -0.833
- viability, no drug: 0.822
- outcome: inactive

MAP2K2
- viability z-score, no drug: 0.842
- viability, no drug: 1
- outcome: inactive

PRKD1
- viability z-score, no drug: -2
- viability, no drug: 0.697
- outcome: inactive

SOS2
- viability z-score, no drug: 0.842
- viability, no drug: 1
- outcome: inactive
